Assay results taken from PMC12040169 (PLOS Biology, 2025).
Some of the results follow.

System: T1, CTL2-GFP (C. trachomatis L2/434/Bu, GFP-expressing)
T1 construct: L2/434/Bu, GFP-expressing
Design: species or system HeLa; Intracellular C. trachomatis growth in HeLa cells, bulk GFP fluorescence relative to DMSO
Conditions: bulk GFP, single well; 28.5 h, 10 µM; inhibitor

Compound	% of control remaining [%]
Cn1ncc(N2CCC(CNC(=O)c3ccc(F)cc3Cl)C2)cc1=O (stereo not shown) [CBK306643]	110.41
CN(CC(N)=O)c1nc(-c2cccnc2)nc2ccccc12 [CBK306346]	157.305
N#Cc1ccc(C(=O)N2C[C@@H]3C[C@H](C2)c2c(-c4cccc(C#N)c4)ccc(=O)n2C3)cc1 [CBK289196]	130.652
c1ccc2c(Sc3cncc(N4CCCC4)n3)cccc2c1 [CBK089594]	101.208
COc1ccc(C(=O)/C=C(\Nc2cccc(C(F)(F)F)c2)C(=O)O)cc1 [CBK264387]	133.799
CCOC(=O)Cn1nc(C)c(Cc2c(Cl)cccc2Cl)c1CC [CBK113223]	125.109
Cc1ccn(-c2ccc(N3CCC4(CCOC4)C3)nn2)n1 (stereo not shown) [CBK306302]	170.99
COc1ccc(/C=C/C(=O)O)cc1S(=O)(=O)NCc1ccccc1 [CBK287252]	126.777
COc1ccc2[nH]c3c(c2c1)CCNC31CCN(C(=O)NC(C)(C)C)CC1 [CBK047069]	119.756
O=C(c1ccc(N2CCSCC2)nc1)N1CCC(N2CCOCC2)CC1 [CBK306582]	88.6115
Cc1ccc2cc(S(=O)(=O)NCCCC(=O)O)ccc2c1 [CBK299818]	119.854
O=C(Nc1ccc(S(=O)(=O)Nc2nccc(C3Cc4ccccc4C(=O)O3)n2)cc1)c1ccccc1 (stereo not shown) [CBK267306]	120.14
Cc1nc(C)c(CCC(=O)Nc2cccc(F)c2)c(=O)[nH]1 [CBK305026]	131.189
C#CCn1c(=O)n(C)n(C)c1=O [CBK023151]	146.612
CCN(c1ccccc1C(=O)O)S(=O)(=O)/C=C/c1ccccc1 [CBK287236]	116.148
O=C(c1cnccc1C(F)(F)F)N1CCc2ccccc21 [CBK200401]	97.2818
O=C(/C=C/c1ccc2c(c1)OCO2)NCc1ccc(-c2csnn2)cc1 [CBK149297]	125.463
CC(C)(O)C#Cc1ccc(C(=O)N2CCCC2C(=O)O)s1 (stereo not shown) [CBK286869]	127.692
NS(=O)(=O)c1ccc(Nc2ncccc2[N+](=O)[O-])cc1 [CBK261724]	104.862
Cc1noc(C)c1CN1CCC(Cc2ccccc2)CC1 [CBK305752]	109.486
COC(=O)c1cc(NC(=O)CC2Sc3ccccc3NC2=O)cc(C(=O)OC)c1 (stereo not shown) [CBK266260]	123.143
OC(CNCCc1c[nH]c2ccccc12)COc1cccc2c1CCCC2 (stereo not shown) [CBK003831]	86.2004
COc1cc(CNC2CCCCCC2)c([N+](=O)[O-])cc1OC [CBK262194]	100
COc1cncc(-c2cc(Nc3ccc(OC)c(OC)c3)ncn2)c1 [CBK090824]	94.7055
CN(CCc1ccccc1)Cc1nc2ccccc2c(=O)[nH]1 [CBK283204]	93.6625
O=C(O)c1cccnc1SC1CC(=O)N(c2ccc(F)cc2)C1=O (stereo not shown) [CBK265582]	107.666
Cc1ccc(-c2nccnc2OCc2ccc3c(c2)OCO3)c(C)c1 [CBK106982]	87.9356

Compound	% of control remaining [%]
CC1C(=O)N2CCCc3cc(S(=O)(=O)NCc4ccc5c(c4)OCO5)cc1c32 (stereo not shown) [CBK294419]	128.906
NS(=O)(=O)c1cccc(NC(=O)c2cccs2)c1 [CBK024419]	125.198
Nc1ncnc(Nc2ccc(F)cc2Cl)c1[N+](=O)[O-] [CBK267255]	152.771
CCCCN(C=O)c1c(CC)nc2c(OCc3ccccc3C)cccn12 [CBK147639]	92.8226
CC(=O)c1ccc(-c2cnc(N)c(NC3CCCCC3)n2)s1 [CBK063596]	165.778
O=C(O)COc1ccc(S(=O)(=O)Nc2ccc(F)cc2)cc1 [CBK268442]	109.369
Cc1cc(-c2cccs2)c(C#N)c(SCc2cccnc2)n1 [CBK270172]	153.271
Cc1nc2cc(OCc3nc(C(=O)NCC(O)CO)co3)ccc2s1 (stereo not shown) [CBK307067]	122.847
COc1cccc(CN2CCC(c3ncc(C(=O)Nc4ccc(F)cc4)c(C)n3)CC2)c1 [CBK285630]	111.382
COc1ccc(-c2cc(C(=O)NCc3ccc(F)cc3)cnc2-c2cccc(C)c2)cc1 [CBK036702]	166.729
CCc1c(C)nc2c(C(=O)NCCCN3CCCC3=O)cnn2c1C [CBK162128]	120.84
O=S(=O)(Cc1ccc(-c2nc(-c3ccncc3)no2)o1)c1ccccc1 [CBK288579]	145.951
N#Cc1cccc(C(=O)NCCc2nnc3n2CCCCC3)c1 [CBK259813]	76.8627
CCCCOc1cccc(C(=O)Nc2ccc(-c3nc4ccccc4o3)c(O)c2)c1 [CBK263435]	120.935
O=C(Nc1nccc(N2CCNCC2)n1)c1cccs1 [CBK004305T]	115.415
OC(CNc1nccnc1-c1ccccc1Cl)COc1ccccc1 (stereo not shown) [CBK037085]	104.263
COC(=O)Cc1nc(NS(=O)(=O)c2ccc(Oc3cccc(Cl)c3C#N)cc2)sc1C [CBK000744]	104.083
O=C(Nc1cccnc1N1CCNCC1)c1ccoc1 [CBK029417T]	197.828
O=C(O)CCCn1c(=O)c2cc3c(=O)n(CCCC(=O)O)c(=O)c3cc2c1=O [CBK265748]	161.046
NNC(=O)Cn1c(-c2ccccn2)nc2ccccc21 [CBK263489]	122.975
c1ccc(COc2nccnc2-c2cccs2)nc1 [CBK107055]	95.6741
CC(=O)NC(CC(=O)NCc1cccnc1-n1cncn1)c1ccc(Cl)cc1 (stereo not shown) [CBK298314]	91.9787
Cc1sc2nc(Cc3ccccc3)n(C3CCN(C(=O)c4ccco4)CC3)c(=O)c2c1C [CBK286317]	93.6376
Cc1nn(C(C)CC(=O)Nc2ccnn2C(C)C)c(C)c1Cl (stereo not shown) [CBK281537]	119.813
CCCC1C2C=CC(C2)C1/C=N/O (stereo not shown) [CBK009671]	123.778
O=C(/C=N/O)Nc1cc(C(F)(F)F)ccc1Cl [CBK288405]	117.87
O=C(CSCC(=O)Nc1ccc2ccccc2c1)NCC1CCCO1 (stereo not shown) [CBK058183]	142.317

Compound	% of control remaining [%]
Cc1ccc(C)c(NC(=O)N[C@@H](CC(C)C)C(=O)O)c1 [CBK286678]	137.773
CC1=NN(c2ccc(S(N)(=O)=O)cc2)C(=O)/C1=C\c1ccc(-c2ccc(S(N)(=O)=O)cc2)o1 [CBK263476]	111.519
Cn1c(O)c(CCNc2cc([C@H]3C[C@@H](O)C3)nc(N)n2)cnc1=O [CBK306956]	135.442
Cc1ccc(C(=O)COC(=O)CCN2C(=O)C3C4CCC(C4)C3C2=O)cc1[N+](=O)[O-] (stereo not shown) [CBK264096]	129.019
CCNc1cncc(-c2ccc(C(N)=O)cc2)n1 [CBK065414]	156.473
O=C(O)CC1SC(Nc2ccccc2F)=NC1=O (stereo not shown) [CBK059096]	97.2471
O=C(O)c1cccc(-n2ncc(-c3ccsc3)n2)c1 [CBK112859]	117.442
CN1C[C@H]2N(C)C(=O)c3ccccc3C(=O)[C@@]2(C)C1 [CBK283482]	124.676
COCc1ccc(C(=O)N2CCC(c3cc4cnccc4[nH]3)CC2)o1 [CBK283073]	84.207
COCCn1c(=O)n(Cc2ccccc2F)c2cccnc21 [CBK283965]	126.751
Cc1nc(SCCC(=O)Nc2ccccc2C#N)nc2cc3c(cc12)CCC3 [CBK268812]	138.233
Cc1cc2cc(C(=O)N3CCC(c4c(C(=O)NC(C)C)sc5ccccc45)C3)ccc2o1 (stereo not shown) [CBK285873]	23.3335
O=S(=O)(Nc1nc(-c2sccc2Cl)cs1)c1cc(Br)c(Cl)s1 [CBK200030]	128.724
COc1ccc(C(=O)Nc2nc3c(OC)ccc(C)c3s2)cc1 [CBK287615]	120.114
CC1Cc2ccccc2N1C(=O)Cn1c(CCCO)nc2ccccc21 (stereo not shown) [CBK297548]	134.586
COc1cc(-c2cn3ccnc3c(N[C@H](CO)C(C)C)n2)cc(OC)c1OC [CBK066220]	144.544
Cc1n[nH]c(C)c1CC(=O)NC(Cc1ccsc1)c1ccccn1 (stereo not shown) [CBK285271]	139.085
CN(C)Cc1c(O)ccc2c(=O)c(Oc3ccc(-c4ccccc4)cc3)c(C(F)(F)F)oc12 [CBK264519]	127.037
COc1cc(S(=O)(=O)N2CCN(S(=O)(=O)c3cccc([N+](=O)[O-])c3)CC2)ccc1Cl [CBK266285]	117.106
O=C(O)c1cccc(NS(=O)(=O)c2cccc(Cl)c2Cl)c1 [CBK155686]	106.226
COc1ccc(C(F)(F)F)cc1N [CBK038366]	168.305
O=C1CCCN1CCCNC(=O)N1CCN(CCc2ccccc2)CC1 [CBK158932]	168.797
CC(CN(C)C(=O)Cn1cccc(C(=O)Nc2ccc(F)cc2)c1=O)c1ccccc1 (stereo not shown) [CBK286065]	110.798
CC(=O)N1c2ccc(C(O)CN3CCCC(C)C3)cc2CC1C (stereo not shown) [CBK282922]	112.168
CC(C)(CN)CN(Cc1ccc(Cl)cc1Cl)C(=O)NCCc1c[nH]c2ccccc12 [CBK000460C]	146.339

Copied from above (2 entries):
Compound	% of control remaining [%]
CN(C)Cc1c(O)ccc2c(=O)c(Oc3ccc(-c4ccccc4)cc3)c(C(F)(F)F)oc12 [CBK264519]	127.037
COc1cc(S(=O)(=O)N2CCN(S(=O)(=O)c3cccc([N+](=O)[O-])c3)CC2)ccc1Cl [CBK266285]	117.106
